Taken from: PubChem BioAssay AID1259424 (University of Nebraska Medical Center, 2018)
The deposit covers about 14,000 reagents; below is a random part of them. 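Higher correlation or smaller distance means closer resemblance to KSR1 loss; control wells, including KSR1 knockdowns, recur on many plates.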 Further read-outs or replicates are left out here. The record does not give: the time to read-out.

Aim: 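Find knockdowns that reproduce the expression shifts seen after KSR1 loss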 (primary screen)
System: human HCT116 colon cancer cells
Knock-down reagent: siRNA pool against human genes, 50 nM
Read-out: 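Six signature mRNAs by branched-DNA multiplex assay, scaled to two housekeeping genes and non-targeting median, log2; matched to mean KSR1 knockdown profile by Pearson correlation and euclidean distance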
Reading the numbers: mean correlation with KSR1 profile: higher = expression change more like KSR1 knockdown

gene symbol | PubChem SID | mean correlation with KSR1 profile
PSME2 (GeneID 5721) | SID363993974 | -0.0713
CLUH (GeneID 23277) | SID363999371 | -0.162
NCF2 (GeneID 4688) | SID363991764 | 0.376
ACADS (GeneID 35) | SID363991356 | -0.267
SELP (GeneID 6403) | SID363994155 | 0.535
RNASEH2C (GeneID 84153) | SID364003825 | 0.82
MAD2L1 (GeneID 4085) | SID363993541 | -0.397
ACAN (GeneID 176) | SID363992428 | 0.245
ZNF248 (GeneID 57209) | SID364001972 | -0.616
SSR1 (GeneID 6745) | SID363994284 | -0.319
ZP2 (GeneID 7783) | SID363994560 | -0.298
KCNK7 (GeneID 10089) | SID363996600 | 0.152
APOBEC3D (GeneID 140564) | SID363991342 | 0.0478
UBE2A (GeneID 7319) | SID363994452 | 0.28
ARAP3 (GeneID 64411) | SID364002466 | -0.605
NGF (GeneID 4803) | SID363993678 | 0.346
TNFAIP8 (GeneID 25816) | SID363998776 | -0.412
CPE (GeneID 1363) | SID363993086 | -0.0207
TRAPPC4 (GeneID 51399) | SID363999910 | -0.492

Reformatted: results already given.
SSR1 (GeneID 6745) [SID363994284]
- mean correlation with KSR1 profile: -0.319

ZP2 (GeneID 7783) [SID363994560]
- mean correlation with KSR1 profile: -0.298

KCNK7 (GeneID 10089) [SID363996600]
- mean correlation with KSR1 profile: 0.152

APOBEC3D (GeneID 140564) [SID363991342]
- mean correlation with KSR1 profile: 0.0478

UBE2A (GeneID 7319) [SID363994452]
- mean correlation with KSR1 profile: 0.28

ARAP3 (GeneID 64411) [SID364002466]
- mean correlation with KSR1 profile: -0.605

Next entries follow:
gene symbol | PubChem SID | mean correlation with KSR1 profile
PPP1R14C (GeneID 81706) | SID364003518 | 0.747
SKIL (GeneID 6498) | SID363996320 | -0.251
LGALS14 (GeneID 56891) | SID364001492 | -0.27
BCR (GeneID 613) | SID363995316 | -0.0512
MIXL1 (GeneID 83881) | SID364003715 | -0.214
SPON2 (GeneID 10417) | SID363998321 | -0.234
GLB1L (GeneID 79411) | SID364002830 | 0.376
MOSPD3 (GeneID 64598) | SID364002671 | -0.359
SLC6A4 (GeneID 6532) | SID363992342 | 0.18
OPTN (GeneID 10133) | SID364002269 | -0.163
SEPTIN8 (GeneID 23176) | SID364005080 | 0.19
GLP1R (GeneID 2740) | SID363993269 | 0.727
KRTAP3-3 (GeneID 85293) | SID364004343 | 0.272
TRIB1 (GeneID 10221) | SID364003303 | 0.484
ADD3 (GeneID 120) | SID364000267 | 0.109
TPK1 (GeneID 27010) | SID364002434 | 0.725
TLR2 (GeneID 7097) | SID363994384 | 0.32
MKRN1 (GeneID 23608) | SID363998523 | 0.0352
APOF (GeneID 319) | SID363992863 | 0.329
LRRC20 (GeneID 55222) | SID364000875 | -0.631
ENPP3 (GeneID 5169) | SID363995960 | -0.683
RPL4 (GeneID 6124) | SID363992252 | 0.18
SLC25A16 (GeneID 8034) | SID364004740 | -0.297
GPR176 (GeneID 11245) | SID363997919 | 0.553
TRAK2 (GeneID 66008) | SID363999272 | 0.0361
STK36 (GeneID 27148) | SID363999649 | 0.289
SHBG (GeneID 6462) | SID363992337 | 0.573
OR51B4 (GeneID 79339) | SID364004340 | 0.744
CCDC177 (GeneID 56936) | SID364001534 | 0.0527
BCAR1 (GeneID 9564) | SID363998939 | -0.226
NKG7 (GeneID 4818) | SID363996496 | -0.121
